Results reported in US10363284B2 (POLYPHOR AG, priority 2012, dated 2019).

Assay: general procedure: Fmoc solid-phase peptide synthesis; Fmoc-Pro-O-2-chlorotrityl resin
Details: whole synthesis, UV 220 nm

Substance | final HPLC purity [%]
Resin-Pro^16-^DPro^15-Lys(iPr)^14-Gln^13-Tyr^12-Cys^11-Tyr^10-Arg^9-Orn(iPr)^8-^DPro^7-Acc^6-Ser^5-Cys^4-Tyr^3-His^2-Tyr^1 | 95
Resin-Pro^16-^D-Lys(iPr)^15-Lys(iPr)^14-Gln^13-Tyr^12-Cys^11-Tyr^10-Arg^9-Orn(iPr)^8-^DPro^7-Ala^6-Ser^5-Cys^4-Tyr^3-His^2-Tyr^1 | 95
